Results published in PubChem BioAssay AID302 (DTP/NCI, 2004).
The list shows only some results of the screen, not a fair sample: it is rich in T/C values a quarter to a half above the control, in often repeated tests (any T/C) and in doses without a T/C. Other doses and runs of a compound stand elsewhere. T/C is the treated group as % of the vehicle group. Some entries give survivors of the animals treated and no T/C: the source holds a T/C of zero for them, seemingly a mark for toxic or unscored doses. Some doses without a T/C left all or most animals alive at the check, yet need not have been tolerated: the source hardly ever lists a survival T/C far under the control, and the zero likely stands for such cases as well. Counts of survivors are from the toxicity check (mostly the fifth day) where no day follows; animals may have died later. Schedules are NCI's codes, taken here to give the interval after Q, in days (D) or hours (H), and the number of doses after X. Some entries were tested several times; the results are listed from low to high. Signs of the kind (2×) count equal records among those shown. Where survival is the endpoint, the PubChem record calls one and a half times the control and up active, and a quarter to a half above the control has no call in these data; cut-offs in other NCI protocols can differ.

Test system: BALB/c mice, Madison 109 lung carcinoma i.m., survival
Test: NCI In Vivo Anticancer Drug Screen. Data for tumor model Madison 109 Lung Carcinoma (intramuscular) in BALB/CM mice
Settings: T/C endpoint: median survival time, higher T/C = longer survival
Experimental: The antitumor activity of compounds was measured in mice bearing transplantable tumors. Survival or tumor size were measured and the results are expressed as the measurement made in the treated group (T) divided by the measurement made in the vehicle treated control group (C). The tumor model used in this assay is Madison 109 Lung Carcinoma (intramuscular) in BALB/CM mice

[1] = dose: 50.0 mg/kg/injection, schedule: Q01DX009 (ip), vehicle: saline with Tween-80
[2] = dose: 25.0 mg/kg/injection, schedule: Q01DX009 (ip), vehicle: saline with Tween-80
[3] = dose: 100.0 mg/kg/injection, schedule: Q01DX009 (ip), vehicle: saline with Tween-80
[4] = dose: 200.0 mg/kg/injection, schedule: Q01DX009 (ip), vehicle: saline with Tween-80
[5] = dose: 400.0 mg/kg/injection, schedule: Q01DX009 (ip), vehicle: saline with Tween-80
[6] = dose: 1.0 mg/kg/injection, schedule: Q01DX009 (ip), vehicle: saline with Tween-80
[7] = dose: 2.0 mg/kg/injection, schedule: Q01DX009 (ip), vehicle: saline with Tween-80

For `O=C(N[C@H](CO)[C@H](O)c1ccc([N+](=O)[O-])cc1)C(Cl)Cl`, which T/C [1] is on record?
Its T/C is 130 % of control.

What about the T/C (dose: 800.0 mg/kg/injection, schedule: Q01DX009 (ip), vehicle: saline with Tween-80) of the same molecule?
The T/C was 127 % of control.

For `O=C1C2(Cl)C3(Cl)C4(Cl)C(Cl)(Cl)C5(Cl)[C@]3(Cl)C1(Cl)[C@]5(Cl)C24Cl` (some centres not stated), which survivor count [2] is on record?
The survivor count was 8 of 8.

What about the survivor count [1] of the same molecule?
Its survivor count is 0 of 8.

What about the survivor count [3] of the same molecule?
Its survivor count is 0 of 8.

And the survivor count [4]?
The survivor count was 0 of 8.

And the survivor count [5]?
Its survivor count is 0 of 8.

`CN(CO)c1nc(N(C)CO)nc(N(C)CO)n1` was tested. Which survivor count [2] did it give?
Its survivor count is 8 of 8.

And the survivor count [1]?
Its survivor count is 8 of 8.

What about the survivor count [3] of the same molecule?
The survivor count was 8 of 8.

What about the survivor count [4] of the same molecule?
The survivor count was 6 of 8.

And the survivor count [5]?
Its survivor count is 5 of 8.

For `O=[N+]([O-])c1ccc(Cl)c([N+](=O)[O-])c1`, which survivor count (dose: 200.0 mg/kg/injection, schedule: Q02DX009 (ip), vehicle: water) is on record?
The survivor count was 8 of 8.

`CCOC(=O)NC1=C(N2CC2)C(=O)C(NC(=O)OCC)=C(N2CC2)C1=O` was tested. Which T/C (dose: 0.25 mg/kg/injection, schedule: Q01DX009 (ip), vehicle: saline with Tween-80) did it give?
Its T/C is 133 % of control.

What about the T/C (dose: 0.5 mg/kg/injection, schedule: Q01DX009 (ip), vehicle: saline with Tween-80) of the same molecule?
Its T/C is 127 % of control.

What about the T/C [6] of the same molecule?
Its T/C is 96, 108, 120 % of control.

What about the survivor count [6] of the same molecule?
Its survivor count is 4 of 8.

What about the T/C [7] of the same molecule?
Its T/C is 124 % of control.

What about the survivor count [7] of the same molecule?
Its survivor count is 4 of 8 and 8 of 8 (2×).

What about the survivor count (dose: 4.0 mg/kg/injection, schedule: Q01DX009 (ip), vehicle: saline with Tween-80) of the same molecule?
Its survivor count is 5 of 8 and 8 of 8 (2×).

And the survivor count (dose: 8.0 mg/kg/injection, schedule: Q01DX009 (ip), vehicle: saline with Tween-80)?
The survivor count was 7 of 8.

And the survivor count (dose: 16.0 mg/kg/injection, schedule: Q01DX009 (ip), vehicle: saline with Tween-80)?
The survivor count was 1 of 8.

How did the survivor count (dose: 2.4 mg/kg/injection, schedule: Q01DX009 (ip), vehicle: saline) turn out when `CC(=O)c1cccc(NC2C(N)C(NC(=O)N(C)C)(C(C)O)C(C)(O)C2(O)COC(=O)c2c(C)cccc2O)c1` (configuration not stated) was run?
Its survivor count is 7 of 8.

What about the survivor count (dose: 4.8 mg/kg/injection, schedule: Q01DX009 (ip), vehicle: saline) of the same molecule?
Its survivor count is 8 of 8.

`Cc1cc(N(CC(C)Br)CC(C)Br)ccc1N=Nc1ccccc1C(=O)O` (configuration not stated) was tested. Which survivor count (dose: 6.25 mg/kg/injection, schedule: Q01DX009 (ip), vehicle: saline with Tween-80) did it give?
Its survivor count is 8 of 8.

What about the survivor count (dose: 12.5 mg/kg/injection, schedule: Q01DX009 (ip), vehicle: saline with Tween-80) of the same molecule?
The survivor count was 8 of 8.

What about the survivor count [2] of the same molecule?
Its survivor count is 8 of 8.
